Experimental data taken from US20150111778A1, “BIO-NANO-CHIP FOR ANTI[…] SALIVARY ASSAY” (WILLIAM MARSH RICE UNIVERSITY, priority 2013, published 2015).

System: tracer antibody
Assay: p-BNC bead-based competitive immunoassay for phenytoin and phenobarbital (drug standards)

Q: How did the limit of detection (from plot of concentration versus linear profile intensity, FIG. 8A-B, 300 ms exposure) turn out when `O=C1NC(=O)C(c2ccccc2)(c2ccccc2)N1` [phenytoin, Phenytoin] was run?
A: about 0.69 ng/mL

Q: And the “limit of detection (LOD)” value (proof of concept, from plot of concentration and signal intensity, FIG. 5C / FIG. 5E)?
A: approximately 10.8 ng/mL
